Values from PubChem BioAssay AID1259405 (NCATS, 2018).

Purpose: 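Mouse-designed siRNAs used to find CHO productivity engineering targets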 (primary screen)
Cells: Chinese hamster CHO-K1 ovary cells with stable secreted eGFP expression
Reagents: single siRNA against mouse genes, 0.8 pmol siRNA per well (2 µl of 400 nM stock)
Duration: 3 days
Measured: 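Per-well intracellular GFP measured by laser scanning cytometry, plus viability from ATP luminescence, each relative to plate median of non-targeting control wells, in %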
Reading the numbers: GFP, % of control: higher = more GFP per well, higher productivity; viability (ATP), % of control: higher = more viable cells (more ATP)
Call rule: 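Called active when intracellular GFP, relative to negative control, is at or above 120%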
The deposit covers about 50,000 reagents; this is an unselected part. About 4,000 of them (8%) were called active. 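Mouse siRNA library applied to hamster cells; one well for each siRNA.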 Reagents against one gene are numbered here.

no.	target gene	reagent	GFP, % of control	viability (ATP), % of control	Outcome
1	Usp14	1	83.3	99.6	inactive
2	Usp14	2	66	69.1	inactive
3	Usp14	3	94.7	83	inactive
4	Zfp688	1	59.5	64.1	inactive
5	Zfp688	2	58.6	78.9	inactive
6	Zfp688	3	70.2	69.9	inactive
7	Kng1	1	73.5	73.8	inactive
8	Kng1	2	85.9	96	inactive
9	Kng1	3	58.2	40.6	inactive
10	Rnft2	1	72.7	48	inactive
11	Rnft2	2	61	63	inactive
12	Rnft2	3	47.9	46.4	inactive
13	Mif	1	116	148	inactive
14	Mif	2	93.1	70.8	inactive
15	Dcun1d4	1	72.4	71.9	inactive
16	Dcun1d4	2	72.5	106	inactive
17	Dcun1d4	3	75.6	60.3	inactive
18	Nat8f3	1	108	87.5	inactive
19	Nat8f3	2	62	83.6	inactive
20	Nat8f3	3	40.9	36.8	inactive
21	Or8g24	1	35.7	32.3	inactive
22	Or8g24	2	83.1	72.3	inactive
23	Or8g24	3	101	93.6	inactive
24	Scgb1b2	1	66	68.7	inactive
25	Scgb1b2	2	115	86.6	inactive
26	Scgb1b2	3	82.8	51.4	inactive
27	Eif3e	1	89.8	80.3	inactive
28	Eif3e	2	53.3	41.2	inactive
29	Eif3e	3	69.8	73.6	inactive
30	Retreg1	1	78.9	59.4	inactive
31	Retreg1	2	57.9	48	inactive
32	Retreg1	3	42.7	41.4	inactive
33	Gprin1	1	70.8	72.4	inactive
34	Gprin1	2	107	73.4	inactive
35	Gprin1	3	95.1	87.5	inactive
36	Zfp747l1	1	112	73.8	inactive
37	Zfp747l1	2	60	80.7	inactive
38	Zfp747l1	3	67.6	89.5	inactive
39	Hdgfl1	1	19.7	47.8	inactive
40	Hdgfl1	2	51.4	47	inactive
41	Hdgfl1	3	84.2	67.9	inactive
42	Nap1l2	1	89.8	62.1	inactive
43	Nap1l2	2	87.3	84.3	inactive
44	Nap1l2	3	78.8	73.5	inactive
45	Bltp2	1	32.1	52.2	inactive
46	Bltp2	2	95.6	97.6	inactive
47	Bltp2	3	93.5	72.3	inactive
48	Tmem123	1	87.7	89.2	inactive
49	Tmem123	2	80.4	81.6	inactive
50	Tmem123	3	71.4	68.6	inactive
51	Pdik1l	1	69.1	85	inactive
52	Cacna1b	1	66	53	inactive
53	Cacna1b	2	79.1	48.9	inactive
54	Cacna1b	3	73.3	63.1	inactive
55	Zp2	1	75.6	47	inactive
56	Zp2	2	38.1	57.1	inactive
57	Zp2	3	66.4	62.9	inactive
58	Zfp85	1	106	103	inactive
59	Zfp85	2	81.8	62.1	inactive
60	4631405J19Rik	1	43.7	26.3	inactive
61	4631405J19Rik	2	26.6	63.4	inactive
62	4631405J19Rik	3	111	49.8	inactive
63	Timm17a	1	99.5	85.7	inactive
64	Timm17a	2	82.1	74.4	inactive
65	Timm17a	3	70	61.9	inactive
66	Cd79a	1	74.2	81.4	inactive
67	Cd79a	2	86.2	87.8	inactive
68	Cd79a	3	86.2	99.9	inactive

13 successive records from above, quoted:
no.	target gene	reagent	GFP, % of control	viability (ATP), % of control	Outcome
18	Nat8f3	1	108	87.5	inactive
19	Nat8f3	2	62	83.6	inactive
20	Nat8f3	3	40.9	36.8	inactive
21	Or8g24	1	35.7	32.3	inactive
22	Or8g24	2	83.1	72.3	inactive
23	Or8g24	3	101	93.6	inactive
24	Scgb1b2	1	66	68.7	inactive
25	Scgb1b2	2	115	86.6	inactive
26	Scgb1b2	3	82.8	51.4	inactive
27	Eif3e	1	89.8	80.3	inactive
28	Eif3e	2	53.3	41.2	inactive
29	Eif3e	3	69.8	73.6	inactive
30	Retreg1	1	78.9	59.4	inactive

The list goes on:
no.	target gene	reagent	GFP, % of control	viability (ATP), % of control	Outcome
69	Hmgb1	1	55.5	69.2	inactive
70	Hmgb1	2	114	84.2	inactive
71	Hmgb1	3	112	83.9	inactive
72	Asb17	1	115	73.1	inactive
73	Asb17	2	67.3	61.1	inactive
74	Asb17	3	178	118	active
75	Prss34	1	179	124	active
76	Prss34	2	154	94.6	active
77	Prss34	3	91.8	81.6	inactive
78	Tram2	1	88.1	89.6	inactive
79	Tram2	2	71.7	105	inactive
80	Tram2	3	80.2	97.8	inactive
81	Tfam	1	80.5	99.3	inactive
82	Tfam	2	112	140	inactive
83	Tfam	3	157	175	active
84	Gvin1	1	66.8	78.9	inactive
85	Gvin1	2	60.6	73.3	inactive
86	Gvin1	3	67.3	85.6	inactive
87	Clmb	1	86.3	116	inactive
88	Clmb	2	71.5	95.3	inactive
89	Clmb	3	90.7	103	inactive
90	Cx3cl1	1	76	94.3	inactive
91	Cx3cl1	2	67.7	84.5	inactive
92	Cx3cl1	3	80.3	111	inactive
93	Cyp1a1	1	58.2	48.9	inactive
94	Cyp1a1	2	95.5	77.7	inactive
95	Cyp1a1	3	115	82.6	inactive
96	Nipal3	1	177	114	active
97	Nipal3	2	71.2	99.1	inactive
98	Nipal3	3	98.5	127	inactive
99	Tm7sf2	1	76	81.7	inactive
100	Tm7sf2	2	58.4	62.4	inactive
101	Tm7sf2	3	69.2	85	inactive
102	Ror1	1	45.6	46.4	inactive
103	Rtn2	1	99	88.2	inactive
104	Rtn2	2	27.3	12.2	inactive
105	Rtn2	3	52.9	58.3	inactive
106	Zfp652	1	89	62.5	inactive
107	Zfp652	2	32.5	45.3	inactive
108	Zfp652	3	82.7	93.1	inactive
